The supplement of paper PMC10849652
Some of the results follow.

By UniProt entry, the sequences of proteins in these tests, tags left out. Where a name states a change or a piece, a line headed by the entry shows the natural chain unless it says otherwise.
UniProt P56962: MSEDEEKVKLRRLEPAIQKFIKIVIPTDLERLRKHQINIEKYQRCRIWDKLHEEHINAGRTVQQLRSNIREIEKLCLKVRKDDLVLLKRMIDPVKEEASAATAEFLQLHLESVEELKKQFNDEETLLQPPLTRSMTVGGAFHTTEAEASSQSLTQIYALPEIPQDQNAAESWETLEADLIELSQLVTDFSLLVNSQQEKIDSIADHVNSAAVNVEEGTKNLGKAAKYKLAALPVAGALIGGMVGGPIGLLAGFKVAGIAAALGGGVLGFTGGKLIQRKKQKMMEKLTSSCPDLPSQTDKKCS
UniProt Q92804: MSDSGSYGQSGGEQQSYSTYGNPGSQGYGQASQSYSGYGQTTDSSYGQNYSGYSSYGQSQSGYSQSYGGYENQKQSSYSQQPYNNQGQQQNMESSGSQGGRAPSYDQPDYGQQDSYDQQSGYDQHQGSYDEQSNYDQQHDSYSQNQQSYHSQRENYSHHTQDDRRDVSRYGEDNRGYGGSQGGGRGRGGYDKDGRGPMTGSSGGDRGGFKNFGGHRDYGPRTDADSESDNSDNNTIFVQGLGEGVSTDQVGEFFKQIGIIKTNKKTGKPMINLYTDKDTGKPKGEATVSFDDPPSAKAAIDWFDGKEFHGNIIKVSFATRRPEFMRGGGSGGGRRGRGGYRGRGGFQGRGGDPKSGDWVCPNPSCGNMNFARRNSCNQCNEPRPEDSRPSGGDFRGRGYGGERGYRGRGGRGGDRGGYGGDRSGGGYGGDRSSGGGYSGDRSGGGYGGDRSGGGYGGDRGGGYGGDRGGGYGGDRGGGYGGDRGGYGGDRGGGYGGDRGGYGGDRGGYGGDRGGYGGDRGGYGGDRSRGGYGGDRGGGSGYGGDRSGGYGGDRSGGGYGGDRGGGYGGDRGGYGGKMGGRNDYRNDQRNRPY
UniProt O15400: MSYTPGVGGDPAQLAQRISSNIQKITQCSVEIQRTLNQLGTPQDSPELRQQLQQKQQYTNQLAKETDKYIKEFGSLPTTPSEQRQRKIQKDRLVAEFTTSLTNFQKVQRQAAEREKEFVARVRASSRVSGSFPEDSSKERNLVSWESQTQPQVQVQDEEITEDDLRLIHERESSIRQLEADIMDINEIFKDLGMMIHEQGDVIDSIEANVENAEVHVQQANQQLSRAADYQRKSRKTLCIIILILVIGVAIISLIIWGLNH
UniProt Q16563: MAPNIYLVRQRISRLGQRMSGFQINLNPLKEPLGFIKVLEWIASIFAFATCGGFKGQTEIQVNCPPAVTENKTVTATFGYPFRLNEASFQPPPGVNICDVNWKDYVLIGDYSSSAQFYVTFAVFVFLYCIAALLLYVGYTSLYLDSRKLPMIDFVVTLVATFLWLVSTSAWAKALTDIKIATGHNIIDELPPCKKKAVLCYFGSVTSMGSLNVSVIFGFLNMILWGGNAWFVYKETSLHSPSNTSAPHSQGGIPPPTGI
UniProt Q9P2R7: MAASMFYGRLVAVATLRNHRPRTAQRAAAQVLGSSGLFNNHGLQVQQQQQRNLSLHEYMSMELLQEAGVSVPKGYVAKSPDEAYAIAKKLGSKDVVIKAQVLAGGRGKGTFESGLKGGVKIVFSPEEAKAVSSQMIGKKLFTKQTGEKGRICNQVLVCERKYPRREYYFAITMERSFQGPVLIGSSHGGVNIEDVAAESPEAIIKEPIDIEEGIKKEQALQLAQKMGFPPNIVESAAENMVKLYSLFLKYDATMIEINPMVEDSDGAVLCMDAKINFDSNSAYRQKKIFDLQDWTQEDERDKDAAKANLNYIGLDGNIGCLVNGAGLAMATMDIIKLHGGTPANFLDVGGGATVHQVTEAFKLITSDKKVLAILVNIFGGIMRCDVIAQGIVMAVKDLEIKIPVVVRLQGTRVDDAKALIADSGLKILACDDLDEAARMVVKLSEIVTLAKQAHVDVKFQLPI
UniProt P31948, whole entry, looked up: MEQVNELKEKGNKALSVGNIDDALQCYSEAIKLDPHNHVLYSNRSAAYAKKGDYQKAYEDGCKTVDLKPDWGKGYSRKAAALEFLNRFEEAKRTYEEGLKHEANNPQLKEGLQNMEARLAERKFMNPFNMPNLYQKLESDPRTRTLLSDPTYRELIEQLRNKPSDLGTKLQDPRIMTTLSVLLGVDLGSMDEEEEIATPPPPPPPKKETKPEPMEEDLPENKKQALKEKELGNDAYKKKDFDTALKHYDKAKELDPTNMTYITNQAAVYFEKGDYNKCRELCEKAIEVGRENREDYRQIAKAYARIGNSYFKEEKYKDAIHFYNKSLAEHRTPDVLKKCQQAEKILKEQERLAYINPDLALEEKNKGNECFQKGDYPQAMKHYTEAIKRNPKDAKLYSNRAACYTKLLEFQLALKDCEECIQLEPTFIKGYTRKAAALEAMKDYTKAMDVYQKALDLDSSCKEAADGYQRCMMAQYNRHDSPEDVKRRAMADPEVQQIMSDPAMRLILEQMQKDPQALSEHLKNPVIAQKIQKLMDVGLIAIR
UniProt Q9Y3F4: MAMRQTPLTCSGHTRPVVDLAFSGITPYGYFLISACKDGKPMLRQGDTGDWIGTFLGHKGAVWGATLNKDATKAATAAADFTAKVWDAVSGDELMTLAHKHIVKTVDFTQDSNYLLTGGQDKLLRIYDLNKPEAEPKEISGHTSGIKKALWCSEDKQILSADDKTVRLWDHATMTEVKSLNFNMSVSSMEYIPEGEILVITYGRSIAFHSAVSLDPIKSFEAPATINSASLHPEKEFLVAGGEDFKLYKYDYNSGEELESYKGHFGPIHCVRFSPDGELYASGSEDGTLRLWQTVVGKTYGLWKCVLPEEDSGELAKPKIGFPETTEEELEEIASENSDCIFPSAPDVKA
UniProt Q15526: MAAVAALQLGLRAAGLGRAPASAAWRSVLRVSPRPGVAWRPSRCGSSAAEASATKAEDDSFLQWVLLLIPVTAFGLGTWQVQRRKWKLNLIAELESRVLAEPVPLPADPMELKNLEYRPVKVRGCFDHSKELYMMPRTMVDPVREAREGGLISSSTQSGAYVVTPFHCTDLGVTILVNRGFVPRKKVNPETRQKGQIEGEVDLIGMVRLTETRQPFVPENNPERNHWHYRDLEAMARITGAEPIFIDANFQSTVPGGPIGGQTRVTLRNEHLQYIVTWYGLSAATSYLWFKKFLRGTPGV
UniProt Q9ULQ0: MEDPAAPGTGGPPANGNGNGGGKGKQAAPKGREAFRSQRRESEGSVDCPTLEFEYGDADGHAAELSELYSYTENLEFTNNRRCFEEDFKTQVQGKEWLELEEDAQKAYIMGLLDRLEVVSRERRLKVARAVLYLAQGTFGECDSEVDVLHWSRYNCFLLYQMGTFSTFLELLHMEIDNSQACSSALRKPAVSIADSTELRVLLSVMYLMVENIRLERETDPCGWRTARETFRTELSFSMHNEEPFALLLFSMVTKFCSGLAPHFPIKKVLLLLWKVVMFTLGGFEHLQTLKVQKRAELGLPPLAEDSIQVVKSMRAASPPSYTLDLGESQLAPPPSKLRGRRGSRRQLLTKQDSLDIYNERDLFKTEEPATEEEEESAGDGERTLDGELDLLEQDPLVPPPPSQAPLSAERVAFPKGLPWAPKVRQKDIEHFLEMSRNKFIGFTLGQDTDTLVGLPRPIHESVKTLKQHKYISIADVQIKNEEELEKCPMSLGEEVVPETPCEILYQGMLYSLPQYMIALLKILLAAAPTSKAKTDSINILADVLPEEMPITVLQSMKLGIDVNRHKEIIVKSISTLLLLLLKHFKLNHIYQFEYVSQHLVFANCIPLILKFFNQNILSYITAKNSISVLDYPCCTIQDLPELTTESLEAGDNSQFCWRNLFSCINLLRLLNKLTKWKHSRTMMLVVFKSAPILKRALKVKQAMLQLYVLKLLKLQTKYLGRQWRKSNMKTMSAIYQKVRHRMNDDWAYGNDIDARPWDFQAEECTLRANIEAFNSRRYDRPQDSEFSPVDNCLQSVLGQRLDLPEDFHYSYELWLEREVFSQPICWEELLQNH
UniProt Q96BN2: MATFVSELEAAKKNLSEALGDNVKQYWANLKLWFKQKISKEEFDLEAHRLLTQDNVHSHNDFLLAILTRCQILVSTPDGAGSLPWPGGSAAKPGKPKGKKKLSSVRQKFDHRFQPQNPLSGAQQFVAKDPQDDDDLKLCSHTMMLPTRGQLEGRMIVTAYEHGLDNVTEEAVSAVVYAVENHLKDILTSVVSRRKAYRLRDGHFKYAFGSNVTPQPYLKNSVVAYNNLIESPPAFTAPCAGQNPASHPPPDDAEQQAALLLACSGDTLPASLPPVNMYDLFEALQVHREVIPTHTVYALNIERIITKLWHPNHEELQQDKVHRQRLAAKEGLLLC
UniProt Q96SI9: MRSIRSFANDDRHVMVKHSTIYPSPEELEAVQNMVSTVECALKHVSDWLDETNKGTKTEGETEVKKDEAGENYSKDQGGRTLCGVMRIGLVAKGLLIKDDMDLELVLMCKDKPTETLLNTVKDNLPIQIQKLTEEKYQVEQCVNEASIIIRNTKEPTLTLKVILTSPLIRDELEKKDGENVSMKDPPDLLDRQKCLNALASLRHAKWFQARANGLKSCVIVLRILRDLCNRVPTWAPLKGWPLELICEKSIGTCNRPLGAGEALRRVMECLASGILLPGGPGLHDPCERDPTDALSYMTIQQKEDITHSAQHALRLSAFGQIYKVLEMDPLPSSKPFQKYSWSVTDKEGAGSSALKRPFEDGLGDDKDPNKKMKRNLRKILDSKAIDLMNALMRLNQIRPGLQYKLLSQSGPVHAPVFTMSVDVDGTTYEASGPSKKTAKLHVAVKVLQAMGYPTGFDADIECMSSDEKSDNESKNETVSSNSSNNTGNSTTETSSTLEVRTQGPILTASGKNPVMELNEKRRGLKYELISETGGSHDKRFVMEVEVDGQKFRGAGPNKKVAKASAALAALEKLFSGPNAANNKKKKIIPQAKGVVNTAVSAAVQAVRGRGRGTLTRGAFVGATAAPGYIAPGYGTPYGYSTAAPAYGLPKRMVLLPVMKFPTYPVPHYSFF
UniProt P61764, whole entry, looked up: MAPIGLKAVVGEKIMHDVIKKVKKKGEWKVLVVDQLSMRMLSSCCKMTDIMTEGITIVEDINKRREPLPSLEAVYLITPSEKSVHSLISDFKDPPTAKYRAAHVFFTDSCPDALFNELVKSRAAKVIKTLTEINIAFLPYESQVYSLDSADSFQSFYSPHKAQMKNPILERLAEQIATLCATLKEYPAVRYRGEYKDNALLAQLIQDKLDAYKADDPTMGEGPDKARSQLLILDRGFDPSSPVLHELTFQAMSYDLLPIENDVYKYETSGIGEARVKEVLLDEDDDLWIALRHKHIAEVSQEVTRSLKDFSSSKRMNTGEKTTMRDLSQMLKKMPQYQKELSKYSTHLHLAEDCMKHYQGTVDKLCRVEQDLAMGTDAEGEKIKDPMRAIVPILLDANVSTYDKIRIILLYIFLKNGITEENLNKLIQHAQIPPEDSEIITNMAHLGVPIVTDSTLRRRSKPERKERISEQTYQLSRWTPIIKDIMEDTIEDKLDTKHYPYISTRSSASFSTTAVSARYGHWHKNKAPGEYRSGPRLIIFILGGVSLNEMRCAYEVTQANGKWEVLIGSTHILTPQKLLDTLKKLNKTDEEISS
UniProt Q13190: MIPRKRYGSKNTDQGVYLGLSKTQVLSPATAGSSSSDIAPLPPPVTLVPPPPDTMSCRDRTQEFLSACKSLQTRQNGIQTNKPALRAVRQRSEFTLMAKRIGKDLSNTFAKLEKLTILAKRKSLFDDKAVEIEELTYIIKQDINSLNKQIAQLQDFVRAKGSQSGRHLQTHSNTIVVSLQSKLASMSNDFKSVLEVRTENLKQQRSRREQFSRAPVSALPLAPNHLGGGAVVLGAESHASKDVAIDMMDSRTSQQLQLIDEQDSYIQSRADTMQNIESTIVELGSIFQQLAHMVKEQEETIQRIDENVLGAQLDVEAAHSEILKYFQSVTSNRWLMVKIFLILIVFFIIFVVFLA

Legend:
Test in all cases: log2 fold change, soluble protein after heating vs DMSO (PISA); higher = thermal stabilisation; K562 lysate, 10 uM; active = over 0.2 and 3.5 SD of the protein, either way, in both replicates (recomputed)
[1] = compound: C#Cc1cccc(Nc2ncnc3cc(OCCOC)c(OCCOC)cc23)c1 [erlotinib]
Outline: (§1)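 Pellets of K562 cells were dounce-homogenised in PBS pH 7.4 with 1 mM MgCl2, and the crude extract was held at 1 mg/mL protein for a 30 min treatment with 10 μM compound. Aliquots were heated for 3 min over 48°C-58°C and pooled before NP-40 was added to 0.5% at 4°C. The supernatant from 21,000xg for 90 min was quantified by TMTpro 16plex LC-MS/MS with channel sums equalised. Values are reported from duplicates as log-two fold change in thermal stability relative to solvent controls.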

[2] = compound: C/C(=N\NC(=O)C1=CC(=CC=C1)S(=O)(=O)N2CCOCC2)/C3=C(C=CC(=C3)Cl)O
Outline: as §1

[3] = compound: C1=CC(=CC=C1C2=NC3=C(N2)C=C(C=C3)C(=O)N)OC4=CC=C(C=C4)Cl
Outline: as §1

[4] = compound: C1=CC2=C(C=CC(=C2)/C=C\3/C(=O)NC(=NCC4=CC=CS4)S3)N=C1
Outline: as §1

[5] = compound: C1=CC2=NC=CN=C2C=C1/C=C/3\C(=O)NC(=O)S3
Outline: as §1

[6] = compound: C1=CC=C(C=C1)C2=NC(=C(N2)C3=CC=NC=C3)C4=CC(=C(C=C4)Cl)O
Outline: as §1

[7] = compound: C1=CC=C2C(=C1)C3=NNC4=CC=CC(=C43)C2=O
Outline: as §1

[8] = compound: C1CCN(C1)C(=O)NC2=CC=CC(=C2)NC3=NC=C(C(=N3)NCCC4=CN=CN4)Br
Outline: as §1

[9] = compound: C1CN(CCC1(CC2=CC=C(C=C2)Cl)N)C3=NC=NC4=C3C=CN4
Outline: as §1

[10] = compound: C1COCCN1CCN2C3=CC=CC=C3N=C2NC(=O)C4=CC(=CC=C4)[N+](=O)[O-] [IRAK-1-4 Inhibitor I]
Outline: as §1

[11] = compound: C=CC(=O)N1CCC[C@@H](n2nc(-c3ccc(Oc4ccccc4)cc3)c3c(N)ncnc32)C1 [ibrutinib]
Outline: as §1

[12] = compound: CC(=O)c1cnc2ccc(-c3cc(Cl)c(O)c(Cl)c3)nc2c1N[C@H]1CC[C@H](CN(C)C)CC1
Outline: as §1

[13] = compound: CC(C)(C)Cn1c(N)nc2ccc(-c3[nH]c(C(C)(C)C)nc3-c3ccc(F)cc3)nc21 [ralimetinib]
Outline: as §1

[14] = compound: CC(C)(O)CC(=O)NCCn1ccc2ncnc(Nc3ccc(Oc4cccc(C(F)(F)F)c4)c(Cl)c3)c21
Outline: as §1

[15] = compound: CC(C)C1=C2N=C(C=C(N2N=C1)NCC3=CC=CC=C3)NCCCCCCN
Outline: as §1

[16] = compound: CC1=C(C(CC(=O)N1)C2=CC=C(C=C2)C(F)(F)F)C(=O)NC3=C(C=C4C(=C3)C=NN4)F
Outline: as §1

[17] = compound: CC1=C(C2=C(C=C1)C(=O)C3=CC=CC=C3N2CCCN)C
Outline: as §1

[18] = compound: CC1=C(C=C(C=C1)NC(=O)C2=CC(=CC=C2)C(C)(C)C#N)NC3=CC4=C(C=C3)N=CN(C4=O)C
Outline: as §1

[19] = compound: CC1=C(C=C(C=C1)NC(=O)C2=CC(=CC=C2)N(C)C)NC(=O)C3=CC=C(C=C3)O
Outline: as §1

[20] = compound: CC1=CC=C(C=C1)SC2=C3C=C(SC3=CN=C2)C(=O)N
Outline: as §1

Measured: log2 fold change

SYNE2 isoform 2 (UniProt Q8WXH0)
inactive: [1] -0.09 | [2] -0.069 | [3] -0.023 | [4] -0.156 | [5] -0.04 | [6] -0.015 | [7] -0.146 | [8] -0.064 | [9] 0.037 | [10] 0.127 | [11] 0 | [12] -0.003 | [13] 0.018 | [14] -0.076 | [15] -0.106 | [16] -0.153 | [17] -0.047 | [18] 0.04 | [19] -0.005 | [20] 0.006

STX17 (UniProt P56962)
inactive: [1] 0.026 | [2] 0.03 | [3] -0.047 | [4] 0.001 | [5] 0.009 | [6] -0.005 | [7] -0.12 | [8] -0.026 | [9] 0.005 | [10] -0.031 | [11] 0.061 | [12] -0.036 | [13] -0.092 | [14] -0.074 | [15] 0.038 | [16] 0.108 | [17] -0.062 | [18] -0.012 | [19] 0.053 | [20] -0.027

TAF15 (UniProt Q92804)
inactive: [1] -0.055 | [2] 0.005 | [3] 0.043 | [4] 0.004 | [5] -0.022 | [6] 0.02 | [7] 0.007 | [8] 0.04 | [9] 0.009 | [10] 0.016 | [11] 0.049 | [12] -0.189 | [13] -0.002 | [14] 0.022 | [15] -0.008 | [16] -0.006 | [17] -0.002 | [18] 0.026 | [19] 0.043 | [20] -0.004

STX7 (UniProt O15400)
inactive: [1] 0.004 | [2] 0.013 | [3] 0 | [4] -0.001 | [5] -0.033 | [6] 0.002 | [7] 0.017 | [8] -0.019 | [9] 0.019 | [10] 0.015 | [11] 0.021 | [12] 0.004 | [13] -0.045 | [14] -0.026 | [15] 0.006 | [16] -0.014 | [17] 0.001 | [18] 0.031 | [19] -0.019 | [20] -0.008

SYPL1 (UniProt Q16563)
inactive: [1] 0.026 | [2] -0.017 | [3] -0.014 | [4] 0.016 | [5] 0.04 | [6] 0.025 | [7] 0.002 | [8] 0.014 | [9] 0.002 | [10] 0.032 | [11] 0.015 | [12] 0.004 | [13] 0.018 | [14] -0.058 | [15] 0 | [16] -0.025 | [17] -0.018 | [18] 0.007 | [19] 0.006 | [20] -0.005

SUCLA2 (UniProt Q9P2R7)
inactive: [1] 0.006 | [2] -0.015 | [3] -0.016 | [4] -0.041 | [5] -0.011 | [6] -0.012 | [7] -0.07 | [8] -0.061 | [9] -0.007 | [10] -0.001 | [11] 0.002 | [12] 0.045 | [13] 0.002 | [14] 0.004 | [15] 0.004 | [16] -0.011 | [17] -0.014 | [18] -0.018 | [19] -0.018 | [20] 0.002

STIP1 isoform 2 (UniProt P31948)
inactive: [1] -0.014 | [2] 0.039 | [3] -0.004 | [4] -0.004 | [5] -0.011 | [6] 0.005 | [7] 0.035 | [8] 0.045 | [9] -0.006 | [10] -0.022 | [11] -0.003 | [12] 0.018 | [13] -0.039 | [14] 0.005 | [15] 0.018 | [16] -0.01 | [17] 0.017 | [18] -0.02 | [19] -0.038 | [20] 0.015

STRAP isoform 2 (UniProt Q9Y3F4)
inactive: [1] 0.013 | [2] 0.043 | [3] 0.005 | [4] -0.008 | [5] -0.019 | [6] 0.046 | [7] 0.019 | [8] 0.026 | [9] 0.019 | [10] 0.016 | [11] 0.028 | [12] -0.008 | [13] 0 | [14] 0.015 | [15] -0.002 | [16] -0.002 | [17] 0.012 | [18] 0.01 | [19] -0.014 | [20] -0.001

SURF1 (UniProt Q15526)
inactive: [1] 0.028 | [2] 0.017 | [3] -0.171 | [4] -0.049 | [5] 0.146 | [6] -0.033 | [7] 0.031 | [8] -0.04 | [9] 0.034 | [10] 0.013 | [11] 0.01 | [12] 0.001 | [13] 0.003 | [14] 0.007 | [15] -0.017 | [16] 0.024 | [17] 0.02 | [18] 0.013 | [19] 0.024 | [20] 0.027

STRIP2 (UniProt Q9ULQ0)
inactive: [1] 0.057 | [2] -0.009 | [3] 0.007 | [4] 0.02 | [5] 0.003 | [6] -0.004 | [7] -0.015 | [8] 0.008 | [9] 0.015 | [10] 0.027 | [11] 0.051 | [12] 0.021 | [13] 0.054 | [14] -0.045 | [15] 0.009 | [16] -0.011 | [17] -0.005 | [18] 0.021 | [19] 0.087 | [20] 0.007

TADA1 (UniProt Q96BN2)
inactive: [1] 0.032 | [2] -0.102 | [3] 0.041 | [4] -0.186 | [5] -0.075 | [6] 0.033 | [7] -0.155 | [8] 0.114 | [9] -0.02 | [10] -0.001 | [11] -0.006 | [12] -0.013 | [13] 0.055 | [14] -0.074 | [15] 0.044 | [16] 0.181 | [17] -0.023 | [18] 0.117 | [19] -0.053 | [20] -0.023

Three successive records from above:
STRAP isoform 2 (UniProt Q9Y3F4)
inactive: [1] 0.013 | [2] 0.043 | [3] 0.005 | [4] -0.008 | [5] -0.019 | [6] 0.046 | [7] 0.019 | [8] 0.026 | [9] 0.019 | [10] 0.016 | [11] 0.028 | [12] -0.008 | [13] 0 | [14] 0.015 | [15] -0.002 | [16] -0.002 | [17] 0.012 | [18] 0.01 | [19] -0.014 | [20] -0.001

SURF1 (UniProt Q15526)
inactive: [1] 0.028 | [2] 0.017 | [3] -0.171 | [4] -0.049 | [5] 0.146 | [6] -0.033 | [7] 0.031 | [8] -0.04 | [9] 0.034 | [10] 0.013 | [11] 0.01 | [12] 0.001 | [13] 0.003 | [14] 0.007 | [15] -0.017 | [16] 0.024 | [17] 0.02 | [18] 0.013 | [19] 0.024 | [20] 0.027

STRIP2 (UniProt Q9ULQ0)
inactive: [1] 0.057 | [2] -0.009 | [3] 0.007 | [4] 0.02 | [5] 0.003 | [6] -0.004 | [7] -0.015 | [8] 0.008 | [9] 0.015 | [10] 0.027 | [11] 0.051 | [12] 0.021 | [13] 0.054 | [14] -0.045 | [15] 0.009 | [16] -0.011 | [17] -0.005 | [18] 0.021 | [19] 0.087 | [20] 0.007

The listing continues.

SUB1 (UniProt P53999)
inactive: [1] -0.018 | [2] 0.006 | [3] 0.001 | [4] -0.005 | [5] -0.026 | [6] 0.027 | [7] 0.005 | [8] 0 | [9] -0.006 | [10] -0.011 | [11] 0.02 | [12] -0.003 | [13] -0.023 | [14] 0.023 | [15] 0.005 | [16] -0.015 | [17] -0.012 | [18] -0.027 | [19] 0 | [20] -0.013

STRIP1 (UniProt Q5VSL9)
inactive: [1] -0.012 | [2] 0.012 | [3] -0.037 | [4] 0.004 | [5] -0.008 | [6] -0.01 | [7] 0.034 | [8] -0.034 | [9] 0.037 | [10] -0.016 | [11] -0.013 | [12] 0.011 | [13] 0.035 | [14] -0.022 | [15] -0.038 | [16] 0.021 | [17] -0.028 | [18] 0.007 | [19] 0.002 | [20] -0.014

STRBP (UniProt Q96SI9)
inactive: [1] 0.004 | [2] 0.022 | [3] 0.036 | [4] 0.033 | [5] -0.025 | [6] -0.026 | [7] -0.005 | [8] -0.022 | [9] -0.002 | [10] 0.011 | [11] -0.001 | [12] -0.019 | [13] -0.035 | [14] 0.037 | [15] -0.014 | [16] 0.053 | [17] -0.103 | [18] 0.002 | [19] -0.018 | [20] 0.031

STXBP1 (UniProt P61764)
inactive: [1] 0.021 | [2] 0.044 | [3] 0.003 | [4] -0.054 | [5] 0.055 | [6] -0.011 | [7] -0.061 | [8] -0.034 | [9] 0.024 | [10] -0.007 | [11] -0.021 | [12] 0.072 | [13] 0 | [14] 0.009 | [15] -0.034 | [16] 0.013 | [17] 0.023 | [18] 0.01 | [19] 0.016 | [20] 0.032

STX5 (UniProt Q13190)
inactive: [1] 0.033 | [2] -0.056 | [3] -0.047 | [4] 0.012 | [5] -0.064 | [6] 0.025 | [7] -0.034 | [8] 0.006 | [9] 0.006 | [10] -0.008 | [11] -0.071 | [12] 0.015 | [13] 0.011 | [14] -0.032 | [15] 0.042 | [16] 0.032 | [17] 0.027 | [18] 0 | [19] -0.032 | [20] -0.025
